Measurements taken from PubChem BioAssay AID493014 (National Center for Advancing Translational Sciences (NCATS), 2011).
The other results are listed elsewhere or left out. The main result of the screen is listed elsewhere. These columns were measured beside it and carry no call. The list favours compounds with an active or inconclusive main result. The note in brackets gives the kind of curve behind each potency; many fits are weak. Peptide text beside a SMILES is read from it. * marks the point of attachment. PhAc = O=C(Cc1ccccc1)*; OBn = c1ccc(CO*)cc1

Experiment: qHTS Assay to Find Inhibitors of Chronic Active B-Cell Receptor Signaling
Settings: ABC-DLBCL IkBa-CBG/CBR reporter, luminescence ratio (green luciferase fused to IkBa over red control in TMD8 lymphoma cells), 4 h
Procedure, shortened: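 TMD8 ABC-DLBCL cells carrying doxycycline-inducible green luciferase fused to IkappaBalpha plus unfused red luciferase were exposed to compounds (up to 46 uM) for 4 hrs at 37C. Activity came from the overlap-corrected green/red luminescence ratio.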

[1] = measured here: CBR red luminescence, cell number
[2] = measured here: IkBa-CBG green luminescence

Compound | AC50 [1] | AC50 [2]
COC(=O)c1c(-c2ccncc2)csc1NC(=O)c1ccoc1C | 7.31 µM [rising, partial curve, poor fit] | –
Cn1nnnc1SC(C(=O)Nc1cccc(C(F)(F)F)c1)c1ccccc1 (stereo not given) | 9.2 µM [falling, partial curve] | –
COc1ccc2c(c1)C1=NN(/C(C)=C/C(C)=O)C(c3cccc(F)c3)C1CC2 (stereo not given) | 8.2 µM [rising, partial curve, poor fit] | –
CN(C(=O)COC(=O)c1ccccc1OCc1ccc(Cl)cc1)c1c(N)n(Cc2ccccc2)c(=O)[nH]c1=O | 0.13 µM [rising, full curve, poor fit] | –
Cc1ccc(NC(=S)/N=C(\N)Nc2nc(C)c3ccccc3n2)cc1C | 5.8 µM [falling, partial curve] | –
O=C(NC(=S)Nc1ccccc1C(=O)O)c1ccc(-c2ccc(Br)cc2)o1 | 7.08 µM [falling, full curve] | –
COc1ccc(OC)c(NC(=O)C2CCCC2)c1 | 0.146 µM [rising, full curve, poor fit] | –
CCOC(=O)c1c(N2C(=O)C=CC2=O)sc(C)c1C | 8.2 µM [falling, partial curve] | 9.2 µM [rising, partial curve, poor fit]
N/C(=N\OC(=O)C1CCCCC1)c1cccc([N+](=O)[O-])c1 | 5.01 µM [rising, partial curve] | –
COCC(C)n1c(C)cc(C(=O)CSc2nnc(Nc3ccccc3F)s2)c1C (stereo not given) | 3.16 µM [falling, partial curve] | –
CC(=O)NC1C(=O)N=C(SCc2ccccc2)NC1=O (stereo not given) | 0.164 µM [falling, full curve, poor fit] | –
Cc1[nH]c2ccccc2c1C(C#N)(C#N)C1C(=O)c2ccccc2C1=O | 35.5 µM [falling, single point] | 31.6 µM [rising, single point]
CCn1cc(C(=O)N(CCC(C)C)c2c(N)n(Cc3ccccc3)c(=O)[nH]c2=O)c(=O)c2ccc(C)nc21 | 11.2 µM [falling, partial curve, poor fit] | –
CCCCn1c(SCC(=O)N2CCC(C)CC2)nc2ccsc2c1=O | 12.6 µM [falling, partial curve, poor fit] | –
N#Cc1ncc(C(F)(F)F)cc1Sc1ccc(N)cc1 | 5.17 µM [rising, partial curve, poor fit] | –
CC(C)N(Cc1nc(-c2ccc(Cl)cc2)no1)C(=O)c1cccs1 | 20.6 µM [rising, partial curve, poor fit] | –
COC(=O)C(NC(=O)c1ccco1)(Nc1nc(C)cs1)C(F)(F)F (stereo not given) | 35.5 µM [rising, single point] | –
CC1(C)CC(=O)CC2(C1)NCC(c1ccccc1Cl)c1c2[nH]c2ccccc12 (stereo not given) | 25.1 µM [falling, single point] | –
Cc1nn(C)c(C)c1NC(=O)c1cc2nc(-c3ccco3)cc(C(F)(F)F)n2n1 | – | 14.1 µM [rising, partial curve, poor fit]
O=C(/C=C/Sc1ccc(C(F)(F)F)cn1)c1ccccc1 | 17.8 µM [rising, partial curve] | –
Cc1c(Cc2ccccc2)c(=O)oc2cc(O)cc(O)c12 | 11.2 µM [falling, single point] | –

Compound | AC50 [1] | AC50 [2]
CCOc1ncccc1C(=O)OCC(=O)c1ccc(Br)s1 | 23.1 µM [rising, single point] | –
Cc1cc(C)c(O)c(C2(O)C(=O)c3ccccc3C2=O)c1 | 10 µM [rising, partial curve, poor fit] | –
O=C(c1ccc(S(=O)(=O)Cc2ccccc2F)c([N+](=O)[O-])c1)N1CCCC1 | 25.1 µM [falling, single point] | –
O=C(Oc1ccc2c(c1)OCO2)c1ccc(F)cc1Cl | 15.8 µM [rising, partial curve, poor fit] | –
CCOC(=O)N1CCN(C(=S)NC2CCCCC2)CC1 | 20.6 µM [rising, partial curve, poor fit] | –
CCCCc1ccc(NC(=O)C2CCN(S(C)(=O)=O)CC2)cc1 | 17.8 µM [rising, partial curve, poor fit] | –
O=C(Nc1nnc(Cc2ccccc2F)s1)c1ccccc1Cl | 6.31 µM [falling, single point] | –
CC(=O)N(C(C)=O)c1c(N2CCCC2)c2ccccc2oc1=O | 11.2 µM [falling, single point] | –
CCC(C)(C)c1ccc(OCCCC[n+]2ccccc2)c(C(C)(C)CC)c1 | 35.5 µM [falling, single point] | –
O=C(Nc1cccc(Cl)c1)OCCOc1ccccc1 | 1.41 µM [rising, partial curve, poor fit] | –
COc1ccc(S(=O)(=O)N2CCOCC2)cc1NC(=O)CSc1cccc[n+]1[O-] | 35.5 µM [falling, single point] | –
O=C(CNC(=O)Cc1ccccc1)NCC(=O)OCc1ccccc1 (PhAc-Gly-Gly-OBn) | 4.47 µM [rising, partial curve] | –
COC(=O)c1ccc(NC(=O)CC2C(=O)N(c3ccc(C)cc3)C(=O)N2CC(C)C)cc1 (stereo not given) | 11.6 µM [rising, partial curve, poor fit] | –
CCCCCC(=O)NNC(=S)NC(=O)c1ccc([N+](=O)[O-])cc1 | 17.8 µM [rising, single point] | –
O=C(O)c1ccccc1C(=O)NNc1ccc(F)cc1F | 20 µM [rising, partial curve, poor fit] | –
CCc1ccc(NC(=O)c2ccc3c(=O)n4c(nc3c2)CCCCC4)cc1 | 14.1 µM [falling, single point] | –
COc1ccc(NC(=O)Nc2ccccc2C(=O)N2CCCC2)cc1 | 4.11 µM [falling, single point] | –
COc1ccccc1NC(=O)CSc1nc(=O)n2cc(C)ccc2n1 | 23.1 µM [falling, single point] | –
COc1ccccc1C(=O)NC(=O)COC(=O)C1CC1C (stereo not given) | 14.6 µM [falling, partial curve] | –
COC(=O)c1ccc(Cn2c(O)c(N=NC(N)=S)c3ccccc32)o1 | – | 25.1 µM [falling, single point]
Cc1nnnn1/C(=C\c1ccccc1)C(=O)OCC(=O)N(C)C1CCS(=O)(=O)C1 (stereo not given) | 15.8 µM [falling, single point] | –

Compound | AC50 [1] | AC50 [2]
Cc1cccc(C(=O)Nc2ccccc2C(=O)OCc2c(C)noc2C)c1 | 1.12 µM [rising, full curve, poor fit] | –
CCOC(=O)c1cc(-c2ccc(N3CCOCC3)cc2)nn1-c1ccccc1C(=O)O | 0.0891 µM [rising, full curve, poor fit] | –
COc1ccc2cc1Oc1ccc(cc1)CC1c3c(cc(OC)c4c3Oc3cc5c(cc3O4)CCNC5C2)CCN1C (stereo not given) | 17.8 µM [falling, partial curve] | –
CCOC(=O)CSc1nnc(-c2ccco2)n1C | 25.1 µM [rising, single point] | –
COc1ccc(/C(C)=N/OC/C(O)=C(\C#N)c2nc3ccccc3[nH]2)cc1 | 4.61 µM [falling, partial curve] | –
COc1ccccc1NCC(=O)c1ccc(Cl)cc1 | 31.6 µM [rising, single point] | –
C/C(=N\NC(=S)NC1CCCCC1)c1ccc(Cl)c(Cl)c1 | 15.8 µM [falling, partial curve] | –
Cn1c(=O)c2c(nc(NCc3ccc4c(c3)OCO4)n2Cc2ccc(F)cc2)n(C)c1=O | 14.6 µM [falling, single point] | –
CCOC(=O)CC(NC(=O)CCc1c(C)nc2nc(C)nn2c1C)c1ccc(OC(C)C)cc1 (stereo not given) | 0.501 µM [rising, full curve, poor fit] | –
O=C(CCc1ccccc1)NC(c1cccs1)c1cc(Cl)c2cccnc2c1O (stereo not given) | 35.5 µM [rising, single point] | –
CCN1CCN(Cc2cccc(Oc3ccc(Cl)cc3)c2)CC1 | 29.1 µM [falling, single point] | –
COc1ccc(-c2csc(-c3cccs3)n2)cc1OC | 17.8 µM [rising, single point] | –
O=C(CNC(=O)C(c1ccccc1)c1ccccc1)N/N=C\c1cccc(O)c1 | 12.6 µM [falling, partial curve, poor fit] | –
Cc1ccc(-n2ncc(-c3nn[nH]n3)c2N)cc1 | 2.51 µM [rising, partial curve, poor fit] | –
C=C(C)CSc1nc2c(cc1C#N)CCC2 | 8.91 µM [rising, partial curve, poor fit] | –
COc1ccc(CCNC(=O)/C(C#N)=C/c2ccc(OCC(=O)NCC3CCCO3)cc2)cc1OC (stereo not given) | 5.62 µM [rising, partial curve, poor fit] | –
O=C(Nc1ccc2c(c1)OCO2)c1cc2n(n1)C(C(F)(F)F)CC(c1ccccc1)N2 (stereo not given) | 0.398 µM [rising, full curve, poor fit] | –
CCCCN(CCCC)C(=O)CSc1nnc2n(C)c(=O)c3c4c(sc3n12)CCCC4 | 2.59 µM [rising, partial curve, poor fit] | –
COC(=O)CCC/C=C1/SCC(NC(=O)c2ccccc2)C1=O (stereo not given) | 29.1 µM [falling, single point] | –
Cc1cccc(OCC(=O)Nc2cccc(C(=O)Nc3ccccc3C(=O)O)c2)c1 | 20.6 µM [falling, single point] | –
O=C(NNC(=O)c1cc(Br)c(Br)s1)c1csc(N2CCOCC2)n1 | 7.31 µM [falling, partial curve, poor fit] | –
